These are yes or no findings as the source states them, for the method shown.
Molecular target: isocitrate dehydrogenase from Corynebacterium glutamicum (Corynebacterium glutamicum) (UniProt P50216)
Experiment: SEC; analytical SEC, Superdex 200 Increase 10/300 GL, PBS pH 7.4, 75-100 ug purified protein injected, 0.5 mL/min, calibrated with size markers; both purified

- binding: no binding (tested: 75-100 ug injected)
B1: isocitrate dehydrogenase from Corynebacterium glutamicum (enzyme, UniProt P50216 1-738)
chain: MAKIIWTRTDEAPLLATYSLKPVVEAFAATAGIEVETRDISLAGRILAQFPERLTEDQKVGNALAELGELAKTPEANIIKLPNISASVPQLKAAIKELQDQGYDIPELPDNATTDEEKDILARYNAVKGSAVNPVLREGNSDRRAPIAVKNFVKKFPHRMGEWSADSKTNVATMDANDFRHNEKSIILDAADEVQIKHIAADGTETILKDSLKLLEGEVLDGTVLSAKALDAFLLEQVARAKAEGILFSAHLKATMMKVSDPIIFGHVVRAYFADVFAQYGEQLLAAGLNGENGLAAILSGLESLDNGEEIKAAFEKGLEDGPDLAMVNSARGITNLHVPSDVIVDASMPAMIRTSGHMWNKDDQEQDTLAIIPDSSYAGVYQTVIEDCRKNGAFDPTTMGTVPNVGLMAQKAEEYGSHDKTFRIEADGVVQVVSSNGDVLIEHDVEANDIWRACQVKDAPIQDWVKLAVTRSRLSGMPAVFWLDPERAHDRNLASLVEKYLADHDTEGLDIQILSPVEATQLSIDRIRRGEDTISVTGNVLRDYNTDLFPILELGTSAKMLSVVPLMAGGGLFETGAGGSAPKHVQQVQEENHLRWDSLGEFLALAESFRHELNNNGNTKAGVLADALDKATEKLLNEEKSPSRKVGEIDNRGSHFWLTKFWADELAAQTEDADLAATFAPVAEALNTGAADIDAALLAVQGGATDLGGYYSPNEEKLTNIMRPVAQFNEIVDALKK

— publication PMC9736777, “Expression and Characterization of Monomeric Recombinant Isocitrate Dehydrogenases from Corynebacterium glutamicum and Azotobacter vinelandii for NADPH Regeneration” (International Journal of Molecular Sciences, 2022)
